Measurements reported in patent US10398696B2, “Combinations for treatment of cancer” (Stichting Het Nederlands Kanker Instituut-Antoni van …, priority 2013, dated 2019).
At least one structure is not confirmed: it was looked up by name or label, or the drawing left a doubt.

Columns and labels:
SW837 colon cells = assay: real-time apoptosis induction over 4 days, SW837; assay type: cell-based; settings: 4-day period
H358 lung cells [1] = assay: real-time apoptosis induction over 4 days, H358; assay type: cell-based; settings: 4-day period
[2] = tested on: KRAS mutated adenocarcinoma of the lung; assay: paired patient biopsy before and after MEK inhibitor treatment; assay type: in vivo, human; settings: before and after one week of treatment
[3] = tested on: KRAS mutant NSCLC lung cells; assay: tumor xenograft experiment; assay type: in vivo; settings: nude mice, subcutaneous xenograft; afatinib 12.5 mg/Kg, trametinib 1 mg/kg, combination at the same dose as monotherapy
[4] = tested on: four different KRAS mutant colon and lung cancer cell lines; assay: proliferation synergy in KRAS mutant cell lines (trametinib with afatinib); assay type: cell-based
[5] = tested on: KRAS mutant colorectal cancers; settings: patient-derived xenografts (Migliardi et al., 2012); cited from earlier work
[6] = tested on: 4 NSCLC (lung) and 4 colon cancer cell lines; assay: long-term proliferation assay in KRAS mutant cell line panel; assay type: cell-based; settings: all but one colon cancer cell line
[7] = tested on: KRAS mutant lung and KRAS mutant colon cancer cells; assay: protein, mRNA and signaling analysis in KRAS mutant cells; assay type: cell-based
H358 lung cells [8] = assay: long-term proliferation assay, H358; assay type: cell-based; settings: in combination with suppression of ERBB3 by shRNA; 1 μM selumetinib; 21 days
Method: FIG. 1 Suppression of ERBB3 by shRNA enhances response to MEK inhibitor. H358 KRAS mutant (Non-Small Cell Lung Cancer (NSCLC) cells were infected with two independent shRNAs targeting ERBB3 as indicated. pLKO vector serves as a control vector. After puromycin selection, cells were cultured in the absence or presence of 1 μM selumetinib for 20 days.
FIG. 2 […] lung cancer cells were cultured in increasing concentration of MEK inhibitor selumetinib alone, EGFR inhibitor gefitinib alone, ERBB2 inhibitor CP724714 alone, EGFR/ERBB2 dual inhibitor afatinib, EGFR/ERBB2 dual inhibitor dacomitinib alone or their combinations as indicated. Cells were harvested, fixed and stained after 21 days.
Recently the use of a kinome-centered synthetic lethal screening approach, which enables the identification of kinases whose inhibition is strongly synergistic with a cancer drug of interest has been described (Prahallad et al., 2012). […] Each of these knockdown vectors has a unique DNA-based molecular bar code identifier, which allows quantification of the relative abundance of each of the shRNA vectors in the presence and absence of drug (Prahallad et al., 2012). […] After 21 days, genomic DNA was isolated from both cells of the treated and untreated populations and the bar codes contained in the shRNA cassettes were recovered by PCR and their abundance determined by deep sequencing. […]

[9] = tested on: KRAS mutant colorectal cancers; assay: patient-derived xenografts from KRAS mutant colorectal cancers; assay type: in vivo; settings: 19 independent patient-derived xenografts
[10] = tested on: KRAS mutant cancer cell lines; settings: the vast majority of the KRAS mutant cancer cell lines in Sanger and CCLE; cited from earlier work

SMILES | induction of apoptosis (SW837 colon cells) | induction of apoptosis (H358 lung cells [1]) | ERBB2 and ERBB3 expression in tumor biopsy [2] | inhibition of tumor growth [3] | synergy with the dual EGFR/ERBB2 inhibitor afatinib [4] | response in vivo [5] | efficacy in long-term proliferation assay [6] | MYC protein ([7]; NSCLC lung cells and colon cancer cells) | ERBB2 and ERBB3 mRNA expression ([7]; multiple KRAS mutant cell lines of lung and colon) | proliferation (H358 lung cells [8]) | induction of ERBB2 and ERBB3 [9] | IC50 [10]
CN(C)C/C=C/C(=O)Nc1cc2c(Nc3ccc(F)c(Cl)c3)ncnc2cc1O[C@H]1CCOC1 [afatinib] | only modest evidence of apoptosis | only modest evidence of apoptosis | – | – | – | – | – | – | – | – | – | –
CC(=O)Nc1cccc(-n2c(=O)n(C3CC3)c(=O)c3c(Nc4ccc(I)cc4F)n(C)c(=O)c(C)c32)c1 [trametinib] | – | – | induction | modest inhibition of tumor growth | strong synergy | – | – | – | – | – | – | –
Cn1cnc2c(F)c(Nc3ccc(Br)cc3Cl)c(C(=O)NOCCO)cc21 [selumetinib] | only modest evidence of apoptosis | only modest evidence of apoptosis | – | – | – | poorly responsive | relatively insensitive | decrease | increase | marked inhibition of proliferation | seen in half of 19 | > 1000 nM
